Values from PubChem BioAssay AID504784 (Drosophila RNAi Screening Center, 2011).
Purpose: 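Genome-wide knock-down for genes giving too much or too little stored lipid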 (primary screen). Cell system: Drosophila Kc167 embryonic cells. Reagent: long dsRNA against Drosophila genes, about 250 ng dsRNA per well. Timing: 4 days. Conditions: cells fed 400 µM oleic acid bound to BSA. Detection: 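Cells imaged and segmented; ratio of lipid droplet area to nuclear area, log-transformed, then normalised as a B-score over the screen; higher means more stored lipid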. Scale: droplet/nuclear area B-score: higher = more stored lipid (overstorage).
The deposit covers about 17,000 reagents; below is an unselected part of those with a known target gene and a result. 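Each column is one replicate's B-score; the combined score over replicates was not deposited, so single values may mislead.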 Names joined by + are all predicted targets of the reagent. Further read-outs or replicates are left out here.

droplet/nuclear area B-score, replicate 1	predicted target	DRSC id
1.23	Mal-A1 (Maltase A1)	DRSC07461
0.0183	RASSF8 (Ras association domain family member 8)	DRSC15707
-1.29	Or43a (Odorant receptor 43a)	DRSC07485
-1.5	tou (toutatis)	DRSC06006
0.627	tou (toutatis)	DRSC22710
-2.79	CG12716	DRSC19493
1.12	CG42272	DRSC08766
0.23	CG42272	DRSC22502
0.193	cato (cousin of atonal)	DRSC07589
0.106	CG1951	DRSC15403
-0.455	Tgi (Tondu-domain-containing Growth Inhibitor)	DRSC09793
-0.261	Tgi (Tondu-domain-containing Growth Inhibitor)	DRSC09794
-0.642	Alp1 (Alkaline phosphatase 1)	DRSC11781
0.757	Cyp9c1 (Cytochrome P450 9c1)	DRSC04607
-1.09	Sox21b	DRSC10025
-0.0584	Sox21b	DRSC10634
0.383	Sox21b	DRSC22788
-2.11	Sox21b	DRSC23005
0.282	CG31897	DRSC01020
0.176	svr (silver)	DRSC17293
0.022	svr (silver)	DRSC18841
-1.2	Cyp4c3 (Cytochrome P450 4c3)	DRSC16631
0.719	Polr2B (RNA polymerase II subunit B)	DRSC16831
0.0394	CG34221	DRSC06150
0.0183	CG3544	DRSC00613
0.814	CG14000	DRSC02332
0.168	CG17806	DRSC15276
1.59	Rab11	DRSC16809
1.66	Cpr97Eb (Cuticular protein 97Eb)	DRSC15123
3.48	vers (versatile)	DRSC10715
-0.0394	vers (versatile)	DRSC23232
-0.142	vari (varicose)	DRSC03202
-0.0946	Elp5 (Elongator complex protein 5)	DRSC08547
-0.75	ovm + CG31975	DRSC22146
-0.0621	CG15185	DRSC12565
-0.529	CG5554	DRSC04513
-0.188	Aprt (Adenine phosphoribosyltransferase)	DRSC08139
-0.254	CG42539 (retired record)	DRSC21639
-0.423	CG17666	DRSC10276
0.249	CG14401	DRSC02385
-1.38	CG14401	DRSC21710
0.481	Rab23	DRSC12305
-1.71	Rab9Fb (Rab at 9Fb)	DRSC19854
1.31	CG5863	DRSC15898
1.49	ACC (Acetyl-CoA carboxylase)	DRSC06059
-2.32	ACC (Acetyl-CoA carboxylase)	DRSC07249
-2.71	CG5355	DRSC02844
0.673	att-ORFB + DPCoAC	DRSC15556
0.985	CG11350	DRSC08181
-0.174	lgs (legless)	DRSC17152
0.359	CG3224	DRSC18295
3.05	MED6 (Mediator complex subunit 6)	DRSC16500
-0.373	CG12998	DRSC19518
-0.813	Karl	DRSC19883
1.63	oxt (peptide O-xylosyltransferase)	DRSC08522
1.87	Mpcp2	DRSC11226
0.468	CG4161	DRSC01930
1.07	CG3817	DRSC15515
-0.958	Psi (P-element somatic inhibitor)	DRSC07519
-0.859	Pex6 + Hao	DRSC06097
0.956	Pex6 + Hao	DRSC06704
0.568	CG7326	DRSC20037
0.25	CG30127 (retired record)	DRSC05785
0.746	CG30127 (retired record)	DRSC05786
0.0174	CG32022	DRSC09678
0.977	GstT4 (Glutathione S transferase T4)	DRSC19757
0.846	Rala (Ras-like protein A)	DRSC18703
-0.428	EndoG (Endonuclease G)	DRSC07292
0.838	EndoG (Endonuclease G)	DRSC22746
-0.121	Wnt6 (Wnt oncogene analog 6)	DRSC02795
-0.802	CG18814	DRSC10347
-0.93	tok (tolkin)	DRSC17087
3.81	mRpL51 (mitochondrial ribosomal protein L51)	DRSC02200
1.05	S-Lap5 (Sperm-Leucylaminopeptidase 5)	DRSC06732
-0.015	CG4480	DRSC02750
-1.13	Pgcl (Pepsinogen C-like)	DRSC18815
0.0285	Tret1-1 (Trehalose transporter 1-1)	DRSC07046
0.185	Tret1-1 (Trehalose transporter 1-1)	DRSC07048
0.0774	Eig71Ej	DRSC11157
-0.675	SH3PX1 (SH3 and PX domain containing 1)	DRSC11139
-1.08	fw (furrowed)	DRSC20334
0.0282	CG30053	DRSC07260
0.398	CG7208	DRSC16212

Copied from the list:
For “droplet/nuclear area B-score, replicate 1”, CG11350 [DRSC08181] reads 0.985
Result of MED6 (Mediator complex subunit 6) [DRSC16500] in “droplet/nuclear area B-score, replicate 1”: 3.05
Entry for vers (versatile) [DRSC10715] in “droplet/nuclear area B-score, replicate 1”: 3.48
Under “droplet/nuclear area B-score, replicate 1”, Mal-A1 (Maltase A1) [DRSC07461] shows 1.23
Under “droplet/nuclear area B-score, replicate 1”, vers (versatile) [DRSC23232] reads -0.0394
For “droplet/nuclear area B-score, replicate 1”, CG17806 [DRSC15276] has 0.168
